Measurements taken from article PMC8531451.

By UniProt entry, the sequences of proteins in these tests, tags left out. Residues count along the entry.
UniProt P02754, 17-178: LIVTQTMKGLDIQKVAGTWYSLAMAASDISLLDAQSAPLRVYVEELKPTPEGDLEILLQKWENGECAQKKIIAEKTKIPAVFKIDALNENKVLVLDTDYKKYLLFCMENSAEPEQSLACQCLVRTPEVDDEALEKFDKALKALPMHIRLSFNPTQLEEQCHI
UniProt P02769, 25-607: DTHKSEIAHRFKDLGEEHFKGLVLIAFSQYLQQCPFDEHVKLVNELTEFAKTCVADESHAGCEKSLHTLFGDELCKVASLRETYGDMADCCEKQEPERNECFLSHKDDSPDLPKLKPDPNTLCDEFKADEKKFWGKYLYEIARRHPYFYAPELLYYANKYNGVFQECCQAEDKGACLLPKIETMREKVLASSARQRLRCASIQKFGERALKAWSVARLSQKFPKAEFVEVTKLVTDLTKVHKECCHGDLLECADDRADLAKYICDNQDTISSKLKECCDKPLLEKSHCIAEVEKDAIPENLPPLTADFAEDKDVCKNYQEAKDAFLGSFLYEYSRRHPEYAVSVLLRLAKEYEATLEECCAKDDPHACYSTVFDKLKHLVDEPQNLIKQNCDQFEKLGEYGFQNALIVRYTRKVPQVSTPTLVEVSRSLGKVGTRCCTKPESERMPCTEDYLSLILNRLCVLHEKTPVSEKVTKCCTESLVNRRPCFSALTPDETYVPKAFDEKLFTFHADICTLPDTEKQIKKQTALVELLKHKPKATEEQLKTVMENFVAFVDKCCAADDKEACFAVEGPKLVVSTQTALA

Assays:
[1] = biological target: beta-lactoglobulin (bovine) (UniProt P02754); assay: ELASA (enzyme-linked aptasorbent assay); conditions: 0.001-1000 pg/ml coated protein, 50 nM aptamer; 5' biotin (5Biosg) on oligolinker S1; Sensor: 10 mM PBS pH 7.4, target incubated 10 min; aptamer folded in 1 mM MgCl2, 10 mM PBS (90 °C 5 min); commercial protein; label: biotin
Lysozyme = assay: non-faradaic capacitive aptasensor; conditions: 100 fg/ml, negligible change; 5' biotin (5Biosg) on oligolinker S1; Sensor: 10 mM PBS pH 7.4, target incubated 10 min; aptamer folded in 1 mM MgCl2, 10 mM PBS (90 °C 5 min); commercial protein; label: biotin
[2] = biological target: Bovine serum albumin (BSA) (bovine) (UniProt P02769); assay: non-faradaic capacitive aptasensor; conditions: 100 fg/ml, negligible change; 5' biotin (5Biosg) on oligolinker S1; Sensor: 10 mM PBS pH 7.4, target incubated 10 min; aptamer folded in 1 mM MgCl2, 10 mM PBS (90 °C 5 min); commercial protein; label: biotin

Question: Does “ATACCAGCTTATTCAATTCGACGATCGGACCGCAGTACCCACCCACCAGCCCCAACATCATGCCCATCCGTGTGTGAGATAGTAAGTGCAATCTAAAAAAAAAAAAAAAAAAAAAAAA / TTTTTTTTTTTTTTTTTTTT” bind [1]?
Answer: Result: binds

Question: Does “ATACCAGCTTATTCAATTCGACGATCGGACCGCAGTACCCACCCACCAGCCCCAACATCATGCCCATCCGTGTGTGAGATAGTAAGTGCAATCTAAAAAAAAAAAAAAAAAAAAAAAA / TTTTTTTTTTTTTTTTTTTT” bind (Lysozyme)?
Answer: Result: no binding

Question: Does “ATACCAGCTTATTCAATTCGACGATCGGACCGCAGTACCCACCCACCAGCCCCAACATCATGCCCATCCGTGTGTGAGATAGTAAGTGCAATCTAAAAAAAAAAAAAAAAAAAAAAAA / TTTTTTTTTTTTTTTTTTTT” bind [2]?
Answer: Result: no binding

For part of these data: A negative result means that nothing was seen under these conditions. For part of these data: Construct, isoform or probe ends are uncertain for at least one entry. For part of these data: At least one verdict was read from the data and is not stated in words by the source.
